In patent US8188070B2, “Method of treating neurological diseases and disorders” (The Trustees of the University of Pennsylvania, priority 2002, dated 2012):
Some of these results come from one statement about several compounds together.

What follows are compounds tested on S5 cells. Details: at concentrations of 10 μM.
Procedure: The activities of all compounds were further examined at concentrations ranging from 0.5 to 20 μM. […] The activity of each compound was determined as a percentage increase of the ATP level, reflecting the number of viable cells, relative to cells treated with an equal volume of DMSO only.
SMN protein levels were also determined. Total cell lysates from treated cells were prepared and analyzed by immunoblotting with an anti-SMN antibody. […] The same blots were probed with antibodies against two other abundant proteins, Y14^10 and β-tubulin, to provide an internal control for the amount of cell lysate loaded on the gel.

| SMILES | cell toxicity |
| --- | --- |
| CN(C)CCC=C1c2ccccc2CCc2ccccc21 [Compound 1] | low cell toxicity |
| CNCCCN1c2ccccc2CCc2ccccc21 [Compound 2] | low cell toxicity |
| CC(CN1c2ccccc2Sc2ccccc21)N(C)C (stereo not drawn) [Compound 12] | low cell toxicity |
| CN(C)CCCN1c2ccccc2Sc2ccccc21 [Compound 11] | low cell toxicity |
| CN(C)CCCN1c2ccccc2CCc2ccccc21 [Compound 4] | low cell toxicity |
| CN(C)CC/C=C1/c2ccccc2COc2ccccc21 [Compound 3] | low cell toxicity |
